Assay results taken from PubChem BioAssay AID2551 (National Center for Advancing Translational Sciences (NCATS), 2010).
About 17,000 (5.5%) of roughly 310,000 compounds were called active. This list was built around the results that the source calls inconclusive (neither active nor inactive); the mix of calls is not that of the screen. Calls follow the shape of the dose curve; as a rule, active = well fitted inhibition curve with a large enough effect; inconclusive = small, poorly fitted or top-dose-only effect, or effect the other way; inactive = no such curve, though single readings can be large or run the other way. Potencies of inconclusive entries are doubtful fits and often do not repeat.

By UniProt entry, the sequences of proteins in these tests, tags left out. Where a name states a change or a piece, a line headed by the entry shows the natural chain unless it says otherwise.
UniProt P51450: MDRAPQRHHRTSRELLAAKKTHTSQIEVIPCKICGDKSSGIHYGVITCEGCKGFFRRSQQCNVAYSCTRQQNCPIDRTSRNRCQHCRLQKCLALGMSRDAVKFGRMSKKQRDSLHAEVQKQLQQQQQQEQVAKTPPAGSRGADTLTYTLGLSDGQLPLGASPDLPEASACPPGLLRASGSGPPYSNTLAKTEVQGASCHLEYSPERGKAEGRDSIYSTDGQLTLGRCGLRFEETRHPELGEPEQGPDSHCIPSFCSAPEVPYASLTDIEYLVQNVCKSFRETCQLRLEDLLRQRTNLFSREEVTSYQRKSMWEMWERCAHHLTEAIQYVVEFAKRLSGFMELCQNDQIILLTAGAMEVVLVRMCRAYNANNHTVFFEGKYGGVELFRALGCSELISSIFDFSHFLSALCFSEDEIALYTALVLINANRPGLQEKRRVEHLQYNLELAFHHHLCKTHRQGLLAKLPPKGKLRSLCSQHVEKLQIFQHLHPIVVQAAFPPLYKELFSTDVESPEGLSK

target: Nuclear receptor ROR-gamma (Mus musculus) (UniProt P51450); experiment: qHTS for inhibitors of ROR gamma transcriptional activity; settings: Drosophila S2 Gal4-RORgamma UAS-luciferase reporter, 20 h; activity change, negative = inhibition: at 53.6 µM (top of the series); also: nearly all actives have a fitted effect of over 60% in size
Method in brief: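 Luciferase reporter read in Schneider cells carrying Gal4-RORγ (mouse) and UAS-Photinus luciferase; cells given compound 1 h before 700 uM copper sulfate induction, then incubated 20 h at ambient temperature.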
% is scaled to controls: 0 for no effect and ±100 for the full control effect; potency is read from the fitted curve at half-maximal effect.

SMILES | Potency | activity change, negative = inhibition
CCC(C)NC(=O)CN1C(=O)c2cccc3cccc1c23 (stereo unspecified) | inconclusive: 6.31 µM [inhibitor, single point] | –
CCOc1ccccc1N1CCN(CC(O)COCc2cccs2)CC1 (stereo unspecified) | inactive | –
Cc1ccc2nc(-c3ccccc3N)[nH]c2c1 | active: 10 µM | –
Oc1ccc2ccccc2c1/C=N/Nc1nnc(-c2ncc[nH]2)c2ccccc12 | active: 0.251 µM | –
CCOC(=O)c1ccc(-n2c(CN(CC)CC)nc3ccc([N+](=O)[O-])cc3c2=O)cc1 | inactive | –
O=C1C2CC=CCC2C(=O)N1c1ccc(NCCc2ccc(Cl)cc2)c([N+](=O)[O-])c1 (stereo unspecified) | inconclusive: 14.1 µM [activator, partial curve] | –
CC(=C/c1ccccc1)/C=N/NC(=O)c1cnccn1 | inconclusive: 3.98 µM [inhibitor, single point] | –
O=C(CSc1nc2ccccc2c(=O)[nH]1)Nc1ccc(S(=O)(=O)N2CCCC2)cc1 | inactive | –
CCCCOC(=O)/C(=C/C=C/c1ccccc1)NC(=O)c1ccccc1 | inconclusive: 31.6 µM [activator, single point] | –
COc1ccccc1CNC(=O)C1CCC(CNC(=O)[C@@H]2Cc3ccccc3CN2)CC1 (stereo partly specified) | inconclusive: 11.2 µM [inhibitor, partial curve] | –
O=C(Nc1nccs1)Oc1ccccc1 | – | inactive: 5.78% [at 10 µM]
O=C(NN1C(=O)C2C3C=CC(C4CC34)C2C1=O)c1ccc(Cl)c(Cl)c1 (stereo unspecified) | inconclusive: 0.562 µM [activator, full curve] | –
CCCCCCCCCCCCCCCCCC(=O)OC[C@@H](O)[C@H]1OC[C@H](O)[C@H]1O | – | inactive: -5.99% [at 10 µM]
O=C(NCc1ccccc1)c1cc[n+](CC(=O)c2cccs2)cc1 | inconclusive: 35.5 µM [inhibitor, single point] | –
Cc1c(-c2ccccn2)c(=O)[nH]n1-c1ccc(F)cc1 | active: 6.31 µM | –
Cc1ccc(C)c(NC(=S)N(CCc2ccncc2)C(C)C)c1 | active: 11.2 µM | –
COc1ccc(C(=O)NCC(c2ccc(F)cc2)N2CCOCC2)cc1S(=O)(=O)N1CCCC1 (stereo unspecified) | inconclusive: 7.08 µM [activator, partial curve] | –
CCn1c(SCC(=O)N2CCN(c3ccc(Cl)cc3)CC2)nc2ccccc2c1=O | inactive | –
Cc1ccc(-c2nc3cc(N)ccc3o2)cc1Br | inconclusive: 2.51 µM [inhibitor, full curve, poor fit] | –
COc1ccc(C2CC2/C(=N/O)c2ccccn2)cc1 (stereo unspecified) | inconclusive: 17.8 µM [inhibitor, single point] | –
COc1ccc(Cc2nnc(NC(=O)C3CCN(C(=O)c4ccco4)CC3)s2)cc1 | inconclusive: 20 µM [activator, single point] | –
O=C(CN1CCc2ccccc2C1)NCc1ccco1 | inactive | –
COc1ccc(C(=O)N2CCC[C@@]3(CCN(Cc4nccs4)C3)C2)cc1 | inactive | –
CC(=O)c1ccc(C(=O)N2CCCC(CCC(=O)N(C)CCc3ccccn3)C2)s1 (stereo unspecified) | inactive | –
CCCCCCCC/C=C\CCCCCCCC(=O)NCc1ccc(O)c(OC)c1 | inactive | –
CCOC(=O)N1CCN(C(=O)c2ccc(CS(=O)(=O)c3ccccc3OC)o2)CC1 | inconclusive: 31.6 µM [inhibitor, single point] | –

Three entries drawn at random from the list so far, as already listed:
SMILES | Potency | activity change, negative = inhibition
CCC(C)NC(=O)CN1C(=O)c2cccc3cccc1c23 (stereo unspecified) | inconclusive: 6.31 µM [inhibitor, single point] | –
CCCCOC(=O)/C(=C/C=C/c1ccccc1)NC(=O)c1ccccc1 | inconclusive: 31.6 µM [activator, single point] | –
COc1ccc(C(=O)N2CCC[C@@]3(CCN(Cc4nccs4)C3)C2)cc1 | inactive | –

Next entries

SMILES | Potency | activity change, negative = inhibition
Brc1ccc(-c2csc(Nc3nc(-c4ccc(Br)cc4)cs3)n2)cc1 | inconclusive: 20 µM [inhibitor, single point] | –
COC(=O)C(C)Sc1nc2c(c(=O)[nH]c(=O)n2C)n1CCC(C)C (stereo unspecified) | inconclusive: 10 µM [activator, partial curve] | –
Cc1c(Cl)c(C(=O)Nc2nc3ccccc3n2CCN2CCCCC2)nn1C | inconclusive: 12.6 µM [inhibitor, single point] | –
CCC(=O)Nc1ccccc1C(=O)C(=O)Nc1ccccc1 | inconclusive: 0.282 µM [activator, full curve] | –
Cc1cccc(NC(=O)C2CCN(S(=O)(=O)c3ccc4c(c3)NC(=O)CO4)CC2)c1 | inconclusive: 17.8 µM [activator, single point] | –
CCCCC[C@H](O)/C=C/[C@@H]1[C@@H](C/C=C\CCCC(=O)O)[C@H]2CO[C@@H]1C2 | inconclusive: 15.8 µM [activator, partial curve] | –
CN1C(=O)Cc2cc(S(=O)(=O)N3CCN(c4cccc(C(F)(F)F)c4)CC3)ccc21 | inconclusive: 35.5 µM [inhibitor, single point] | –
Cc1cc(-n2nnc3ccccc32)nc2ccccc12 | inactive | –
Cc1nn(Cc2cccc(C(=O)O)c2)c(C)c1[N+](=O)[O-] | inactive | –
Cc1[nH]c2ccccc2c1C(=O)CCl | active: 12.6 µM | –
COc1ccccc1CCNC(=O)Cn1c(=O)oc2ccccc21 | inactive | –
COc1ccccc1C(=O)Nc1sc2c(c1C(N)=O)CCCC2 | inconclusive: 4.47 µM [activator, partial curve] | –
C/C(CC(=O)Nc1cccc2c1CCCC2)=N\NC(=O)c1cccc2ccccc12 | inconclusive: 17.8 µM [inhibitor, single point] | –
Cc1cccc(N2C(=O)c3cccc4c(N(C)CCO)ccc(c34)C2=O)c1 | active: 1.26 µM | –
CC(=O)c1ccc(NC(=O)COC(=O)c2c3c(nc4ccccc24)/C(=C\c2cccs2)CCC3)cc1 | inconclusive: 0.316 µM [activator, full curve] | –
COc1ccc(/C(C)=N/NC(=S)Nc2cc(C)ccc2C)cc1 | active: 2.82 µM | –
C(=N\Nc1nc2ccccc2s1)/c1ccco1 | active: 11.2 µM | –
O=C(Nc1ccc(N2CCOCC2)cc1N1CCOCC1)c1ccc(Cl)cc1 | inactive | –
Cc1ccc(-c2nc3ccsc3c(=O)o2)cc1 | inconclusive: 7.08 µM [inhibitor, partial curve] | –
Cc1nc(-c2coc3cc(OCC(=O)O)ccc3c2=O)cs1 | active: 7.08 µM | –
Nc1[nH]nc2nc(NCc3ccccc3)c3c(c12)CCN(Cc1ccccc1)C3 | inconclusive: 1.41 µM [activator, partial curve] | –
CCN(CC)c1ccc(CNc2nc3ccccc3n2CC)cc1 | inactive | –
CCOc1ccc(N2C(=O)CC(N(CCc3ccccc3)C(=O)/C=C/C(=O)O)C2=O)cc1 (stereo unspecified) | inactive | –
O=C1C2CC=CCC2C(=O)N1c1n[nH]c(CCc2ccccc2)n1 (stereo unspecified) | inconclusive: 35.5 µM [activator, single point] | –
O=C(O)CNC(=S)N(Cc1ccco1)Cc1ccccc1Cl | inactive | –
CCC(=O)NC(=S)Nc1cccc(Cl)c1N1CCCCC1 | active: 4.47 µM | –

SMILES | Potency | activity change, negative = inhibition
COc1cccc(/C=C2\SC(=S)N(C(C(=O)O)c3ccccc3)C2=O)c1OC (stereo unspecified) | inconclusive: 35.5 µM [inhibitor, single point] | –
CCC(C)[C@@H](NC(=O)OC(C)(C)C)c1nnc(S(=O)(=O)Cc2cccc(C)c2)o1 (stereo partly specified) | active: 3.16 µM | –
CCOC(=O)C1=C(C)N(CCCC(=O)O)C(=O)NC1c1ccc(Cl)cc1 (stereo unspecified) | inactive | –
Cc1cc(NC(=O)c2ccccc2C)no1 | inconclusive: 35.5 µM [inhibitor, single point] | –
CCOC(=O)CC(=O)CSc1nc2cc(C)ccc2cc1C | inconclusive: 20 µM [inhibitor, single point] | –
CCOC(=O)c1c(SCC(=O)Nc2nc(C)cs2)nc(=O)[nH]c1C | inactive | –
COc1ccccc1N1CCN(Cc2cc(=O)c(OCC(=O)NC(C)C)co2)CC1 | inactive | –
CN(C)S(=O)(=O)c1cccc(NC(=O)c2sccc2-c2ccccc2)c1 | inconclusive: 28.2 µM [inhibitor, single point] | –
Cn1ccnc1SCC(=O)Nc1ccc2c(c1)COC2=O | inconclusive: 1.78 µM [activator, partial curve, poor fit] | –
NC(N)=Nc1nc(C2COc3ccccc3O2)cs1 (stereo unspecified) | inconclusive: 7.08 µM [activator, partial curve] | –
Cc1cccc(CN2CCc3c(OCC(=O)NCc4ccco4)cccc3C2=O)c1 | inconclusive: 12.6 µM [activator, partial curve] | –
N/C(=N\OC(=O)CCCc1ccccc1)c1cccnc1 | inactive | –
Clc1ccc(OCCOCCN2CCCCC2)c(Br)c1 | inactive | –
COCCNCC(O)CON=C1c2ccccc2-c2ccccc21 (stereo unspecified) | inactive | –
CCOC(=O)c1ccc(NC(=O)c2ccc(CN3CCc4ccccc4C3)cc2)cc1 | inconclusive: 5.62 µM [activator, partial curve] | –
COc1ccc(NC(=O)c2cc3cccc(OC)c3oc2=Nc2ccc(C(=O)O)cc2)cc1OC | active: 0.447 µM | –
FC(F)(F)c1ccc(/C=N/n2c(COc3ccccc3)n[nH]c2=S)cc1 | inconclusive: 2.82 µM [inhibitor, full curve, poor fit] | –
CCNC(=O)n1nccc1C(C)Oc1ccc(Cl)cc1 (stereo unspecified) | inactive | –
COC(=O)c1ccc(OCC(=O)c2ccc(O)cc2O)cc1 | active: 0.0794 µM | –
Cc1ccc(S(=O)(=O)N2CCN(C(=O)c3cc(=O)c4ccccc4o3)CC2)cc1 | inconclusive: 0.1 µM [inhibitor, full curve] | –
Cc1ccc(NC(=S)N/N=C2/CCCc3c(C)cc(C)cc32)cc1 | inconclusive: 17.8 µM [inhibitor, partial curve, poor fit] | –
CN1CCc2c(sc(NC(=O)c3ccc4ccccc4c3)c2C(N)=O)C1 | inconclusive: 20 µM [inhibitor, single point] | –
O=C(CSc1ccc(Cl)cc1)Nc1ccc(-c2nc3ccccc3[nH]2)cc1 | inconclusive: 22.4 µM [inhibitor, single point] | –
Cc1cccn2cc(CNS(=O)(=O)c3cccc(F)c3)nc12 | inconclusive: 3.55 µM [activator, single point] | –
